Test results published in paper PMC4813707.

Protein sequences, listed by entry. Tags and fused reporters are not part of them.
UniProt Q9R190: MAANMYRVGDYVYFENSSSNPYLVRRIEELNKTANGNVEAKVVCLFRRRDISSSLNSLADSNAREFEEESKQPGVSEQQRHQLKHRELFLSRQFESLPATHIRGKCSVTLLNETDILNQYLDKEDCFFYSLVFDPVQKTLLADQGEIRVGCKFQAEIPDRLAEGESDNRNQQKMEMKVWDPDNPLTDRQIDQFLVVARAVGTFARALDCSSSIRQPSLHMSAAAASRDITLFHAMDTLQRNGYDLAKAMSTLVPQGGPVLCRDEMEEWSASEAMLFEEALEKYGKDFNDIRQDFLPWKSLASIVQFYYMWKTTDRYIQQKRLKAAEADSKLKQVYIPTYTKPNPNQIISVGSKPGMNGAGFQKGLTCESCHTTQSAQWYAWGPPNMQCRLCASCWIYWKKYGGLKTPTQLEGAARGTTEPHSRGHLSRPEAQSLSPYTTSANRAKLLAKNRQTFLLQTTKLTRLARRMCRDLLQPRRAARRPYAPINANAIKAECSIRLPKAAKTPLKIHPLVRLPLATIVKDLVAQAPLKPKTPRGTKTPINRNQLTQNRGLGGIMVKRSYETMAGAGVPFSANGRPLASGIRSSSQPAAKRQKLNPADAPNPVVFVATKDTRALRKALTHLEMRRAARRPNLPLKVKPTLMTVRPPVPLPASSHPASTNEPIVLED
UniProt Q6PDQ2: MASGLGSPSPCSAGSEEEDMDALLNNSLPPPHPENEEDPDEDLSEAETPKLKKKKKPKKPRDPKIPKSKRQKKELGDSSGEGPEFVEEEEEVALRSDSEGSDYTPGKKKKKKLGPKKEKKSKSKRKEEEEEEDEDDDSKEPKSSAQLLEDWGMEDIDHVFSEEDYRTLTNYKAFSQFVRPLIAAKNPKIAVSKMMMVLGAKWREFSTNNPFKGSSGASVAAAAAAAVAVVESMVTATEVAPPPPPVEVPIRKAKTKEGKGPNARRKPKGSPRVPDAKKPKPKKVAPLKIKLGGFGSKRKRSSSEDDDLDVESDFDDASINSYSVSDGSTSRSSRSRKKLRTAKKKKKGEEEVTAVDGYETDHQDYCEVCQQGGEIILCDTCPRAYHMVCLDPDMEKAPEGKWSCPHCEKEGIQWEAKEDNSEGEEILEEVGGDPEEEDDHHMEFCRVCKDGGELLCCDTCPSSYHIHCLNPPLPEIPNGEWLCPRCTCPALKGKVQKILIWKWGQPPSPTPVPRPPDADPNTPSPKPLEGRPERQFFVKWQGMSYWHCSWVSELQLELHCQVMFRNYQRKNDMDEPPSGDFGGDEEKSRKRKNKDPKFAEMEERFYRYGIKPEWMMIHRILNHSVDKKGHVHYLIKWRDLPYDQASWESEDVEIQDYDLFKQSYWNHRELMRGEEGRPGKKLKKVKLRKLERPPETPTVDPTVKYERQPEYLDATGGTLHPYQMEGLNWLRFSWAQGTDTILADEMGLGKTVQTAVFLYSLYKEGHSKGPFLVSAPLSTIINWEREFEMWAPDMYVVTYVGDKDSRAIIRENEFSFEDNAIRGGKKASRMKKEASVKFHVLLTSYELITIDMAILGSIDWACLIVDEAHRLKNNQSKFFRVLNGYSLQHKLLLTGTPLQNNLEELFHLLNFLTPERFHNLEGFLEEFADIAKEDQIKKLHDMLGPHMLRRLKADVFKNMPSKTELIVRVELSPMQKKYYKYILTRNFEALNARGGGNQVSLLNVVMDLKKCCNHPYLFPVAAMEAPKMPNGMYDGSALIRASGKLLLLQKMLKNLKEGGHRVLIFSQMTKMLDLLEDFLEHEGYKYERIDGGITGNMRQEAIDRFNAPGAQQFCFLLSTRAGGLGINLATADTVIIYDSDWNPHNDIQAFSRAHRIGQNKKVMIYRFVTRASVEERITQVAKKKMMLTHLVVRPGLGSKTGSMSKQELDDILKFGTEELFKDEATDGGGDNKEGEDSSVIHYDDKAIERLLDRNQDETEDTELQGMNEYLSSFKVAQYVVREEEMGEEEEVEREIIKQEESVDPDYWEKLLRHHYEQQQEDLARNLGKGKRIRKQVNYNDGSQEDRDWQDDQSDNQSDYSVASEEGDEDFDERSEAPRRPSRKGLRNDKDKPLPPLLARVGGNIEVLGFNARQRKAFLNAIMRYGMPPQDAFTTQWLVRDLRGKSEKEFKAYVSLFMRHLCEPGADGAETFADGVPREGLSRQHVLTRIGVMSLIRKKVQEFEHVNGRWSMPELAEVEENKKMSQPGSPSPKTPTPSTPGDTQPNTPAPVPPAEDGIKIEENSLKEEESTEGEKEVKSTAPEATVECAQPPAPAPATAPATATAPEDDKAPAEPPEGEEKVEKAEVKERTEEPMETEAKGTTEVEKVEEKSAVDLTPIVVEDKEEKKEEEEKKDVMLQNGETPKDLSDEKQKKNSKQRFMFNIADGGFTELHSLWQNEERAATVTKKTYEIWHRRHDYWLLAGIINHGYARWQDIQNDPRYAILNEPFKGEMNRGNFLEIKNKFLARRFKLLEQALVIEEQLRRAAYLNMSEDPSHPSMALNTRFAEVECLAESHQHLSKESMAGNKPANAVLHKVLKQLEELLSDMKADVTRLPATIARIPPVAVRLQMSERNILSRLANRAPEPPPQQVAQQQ
UniProt Q8VHR5: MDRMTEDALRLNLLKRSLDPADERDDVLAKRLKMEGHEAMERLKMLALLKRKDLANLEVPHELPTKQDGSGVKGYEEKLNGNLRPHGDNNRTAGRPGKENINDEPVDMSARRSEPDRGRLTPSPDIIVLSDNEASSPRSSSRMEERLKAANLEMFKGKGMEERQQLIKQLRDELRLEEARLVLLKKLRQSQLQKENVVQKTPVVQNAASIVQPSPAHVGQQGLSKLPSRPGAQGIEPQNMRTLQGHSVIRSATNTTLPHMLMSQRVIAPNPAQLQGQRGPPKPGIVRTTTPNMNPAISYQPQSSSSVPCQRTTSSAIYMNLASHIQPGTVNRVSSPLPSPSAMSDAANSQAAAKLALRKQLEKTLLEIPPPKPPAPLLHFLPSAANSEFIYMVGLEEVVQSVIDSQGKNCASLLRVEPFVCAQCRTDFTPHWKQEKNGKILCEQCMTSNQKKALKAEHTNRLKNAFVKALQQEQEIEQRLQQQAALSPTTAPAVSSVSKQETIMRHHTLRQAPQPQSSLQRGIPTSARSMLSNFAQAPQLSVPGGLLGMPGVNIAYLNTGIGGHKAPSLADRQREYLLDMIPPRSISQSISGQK
UniProt P70288: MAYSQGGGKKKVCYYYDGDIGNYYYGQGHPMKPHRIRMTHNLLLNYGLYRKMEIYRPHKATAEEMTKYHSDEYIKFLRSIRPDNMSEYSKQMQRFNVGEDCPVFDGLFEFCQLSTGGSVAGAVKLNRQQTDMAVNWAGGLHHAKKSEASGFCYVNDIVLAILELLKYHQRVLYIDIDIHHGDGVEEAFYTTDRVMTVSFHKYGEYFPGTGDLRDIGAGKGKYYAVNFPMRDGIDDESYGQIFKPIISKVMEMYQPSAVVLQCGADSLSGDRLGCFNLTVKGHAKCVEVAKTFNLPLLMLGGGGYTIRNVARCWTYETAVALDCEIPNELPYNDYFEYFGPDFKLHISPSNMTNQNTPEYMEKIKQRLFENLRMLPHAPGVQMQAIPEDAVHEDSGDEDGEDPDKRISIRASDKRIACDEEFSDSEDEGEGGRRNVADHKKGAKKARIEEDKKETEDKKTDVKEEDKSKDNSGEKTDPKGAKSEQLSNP
UniProt Q8K4B0: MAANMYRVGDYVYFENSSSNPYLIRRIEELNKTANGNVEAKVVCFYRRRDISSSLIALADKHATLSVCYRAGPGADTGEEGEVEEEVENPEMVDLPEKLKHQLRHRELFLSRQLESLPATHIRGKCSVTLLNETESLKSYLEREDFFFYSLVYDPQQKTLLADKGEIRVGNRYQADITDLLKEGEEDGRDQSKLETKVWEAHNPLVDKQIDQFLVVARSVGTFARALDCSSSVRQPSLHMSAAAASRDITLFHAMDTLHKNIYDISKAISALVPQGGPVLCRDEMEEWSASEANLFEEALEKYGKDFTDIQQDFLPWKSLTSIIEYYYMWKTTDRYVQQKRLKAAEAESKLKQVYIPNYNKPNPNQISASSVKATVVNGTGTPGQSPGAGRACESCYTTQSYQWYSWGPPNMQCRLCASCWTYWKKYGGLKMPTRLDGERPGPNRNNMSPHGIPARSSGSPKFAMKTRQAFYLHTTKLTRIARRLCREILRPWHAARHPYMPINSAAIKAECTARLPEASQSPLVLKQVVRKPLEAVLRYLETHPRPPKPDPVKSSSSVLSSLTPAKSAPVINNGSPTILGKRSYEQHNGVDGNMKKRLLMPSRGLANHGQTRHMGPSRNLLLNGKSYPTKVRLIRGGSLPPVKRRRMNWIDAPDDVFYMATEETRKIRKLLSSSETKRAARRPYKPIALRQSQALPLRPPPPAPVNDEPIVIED
UniProt Q924K8: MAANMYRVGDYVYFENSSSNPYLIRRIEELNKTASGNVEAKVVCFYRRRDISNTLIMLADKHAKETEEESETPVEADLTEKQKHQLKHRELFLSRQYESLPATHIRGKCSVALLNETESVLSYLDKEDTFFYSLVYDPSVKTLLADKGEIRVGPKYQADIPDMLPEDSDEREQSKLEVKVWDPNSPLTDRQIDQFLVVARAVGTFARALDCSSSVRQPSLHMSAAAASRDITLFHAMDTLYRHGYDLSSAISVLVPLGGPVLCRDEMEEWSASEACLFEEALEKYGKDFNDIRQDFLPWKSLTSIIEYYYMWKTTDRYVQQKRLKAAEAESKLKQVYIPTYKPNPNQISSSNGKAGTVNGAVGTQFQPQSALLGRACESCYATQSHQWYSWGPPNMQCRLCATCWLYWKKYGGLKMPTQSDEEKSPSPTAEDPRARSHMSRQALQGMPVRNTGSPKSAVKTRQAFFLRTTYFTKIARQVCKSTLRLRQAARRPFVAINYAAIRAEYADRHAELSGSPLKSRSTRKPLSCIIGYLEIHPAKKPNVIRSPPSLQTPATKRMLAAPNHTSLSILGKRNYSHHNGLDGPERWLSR

B1: Cdk2ap1 (protein, UniProt O35207 1-114)
chain: MSYKPNLTAHMPAAALNAGSVHSPSTSMATSSQYRQLLSDYGPPSLGYTQGTGNSQVPQSKYAELLAIIEELGKEIRPTYAGSKSAMERLKRGIIHARSLVRECLAETERNARS

Target: Mta2-FTAP (mouse) (UniProt Q9R190)
Assay: affinity purification with mass spectrometry; anti-FLAG affinity purification of Mta2-FTAP from mouse ESC lysate (lysis at 450 mM NaCl, 0.2% Nonidet P-40, diluted to 150 mM NaCl, 0.1% Nonidet P-40), native elution with 3x FLAG peptide, BN-PAGE, 48 slices, LC-MS/MS and protein correlation profiling; replicates with and without benzonase

binding, binds:
B1

Target: Mta2-FTAP (mouse) (UniProt Q9R190)
Assay: as above
Remark: another data set of the same source

binding, binds:
Chd4 (from UniProt Q6PDQ2 1-1915) (enzyme), Gatad2b (from UniProt Q8VHR5 1-594), Hdac2 (from UniProt P70288 1-488) (enzyme), Mta1 (from UniProt Q8K4B0 1-715), Mta3 (from UniProt Q924K8 1-591)

These are yes or no findings as the source states them, for the method shown. Binding seen in cells or lysates may run through a third protein. Here binding means that the protein was enriched with, or labelled near, the bait; the list need not be complete.
